PubChem BioAssay AID1224829 – NIAID – 2016
This is an unselected part of about 3,800 reagents tested. 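Calls cover raised and lowered translocation; gene median uses one vendor's three siRNAs; qiagen siRNAs acted more weakly than ambion siRNAs.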 Unmarked entries are inactive.

Test: 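Secondary check of hits that alter LPS-induced p65 translocation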 (follow-up of hits)
Cells: mouse RAW264.7 G9 macrophage reporter cells
Reagent: single siRNA against mouse genes, 100 nM
Time to read-out: 2 days of siRNA knock-down, then 40 min of LPS before fixing
Challenge: LPS (Salmonella minnesota R595) at 10 ng/ml
Detection: 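High-content images after 40 min LPS exposure; GFP-p65 nucleus to surrounding ring signal ratio, normalised to plate median and non-targeting control wells, expressed as z-score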
Scale: p65 translocation z-score and gene median z-score, per vendor: higher = more nuclear NF-kappaB p65 after LPS
Call rule: 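An siRNA is called active when the mean z-score of its two replicates is above 2 or below -2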
Meaning of the calls: active = changed p65 translocation (either direction); inactive = no clear change

target gene | PubChem SID | siRNA vendor or control pool | p65 translocation z-score, replicate mean | p65 translocation z-score, replicate 1 | p65 translocation z-score, replicate 2 | gene median z-score, per vendor
Ncoa5 (GeneID 228869) | SID315488322 | ambion single siRNA | -2.94 (active) | -3.67 | -2.21 | -2.71
Ncoa5 (GeneID 228869) | SID315488323 | ambion single siRNA | -2.75 (active) | -1.84 | -3.66 | -2.71
Ncoa5 (GeneID 228869) | SID315488324 | ambion single siRNA | -2.71 (active) | -3.1 | -2.32 | -2.71
Ncoa5 (GeneID 228869) | SID315488325 | qiagen single siRNA | -0.389 | -0.247 | -0.531 | -0.247
Ncoa5 (GeneID 228869) | SID315488326 | qiagen single siRNA | 0.92 | 1.11 | 0.732 | -0.247
Ncoa5 (GeneID 228869) | SID315488327 | qiagen single siRNA | -3.8 (active) | -3.8 | – | -0.247
Atp1b3 (GeneID 11933) | SID315483795 | ambion single siRNA | -2.25 (active) | -2.82 | -1.69 | -2.92
Atp1b3 (GeneID 11933) | SID315483796 | ambion single siRNA | -2.32 (active) | -3.01 | -1.62 | -2.92
Atp1b3 (GeneID 11933) | SID315483797 | ambion single siRNA | -5.71 (active) | -6.43 | -4.99 | -2.92
Atp1b3 (GeneID 11933) | SID315483798 | qiagen single siRNA | 1.75 | 0.22 | 3.27 | 0.662
Atp1b3 (GeneID 11933) | SID315483799 | qiagen single siRNA | 1.08 | 0.242 | 1.93 | 0.662
Atp1b3 (GeneID 11933) | SID315483800 | qiagen single siRNA | 0.271 | -0.542 | 1.08 | 0.662
Zfp286 (GeneID 192651) | SID315487989 | ambion single siRNA | -3.41 (active) | -4.9 | -1.93 | -2.47
Zfp286 (GeneID 192651) | SID315487990 | ambion single siRNA | -2.03 (active) | -1.04 | -3.01 | -2.47
Zfp286 (GeneID 192651) | SID315487991 | ambion single siRNA | -2.48 (active) | -1.59 | -3.37 | -2.47
Zfp286 (GeneID 192651) | SID315487992 | qiagen single siRNA | 1.05 | 0.581 | 1.52 | 0.734
Zfp286 (GeneID 192651) | SID315487993 | qiagen single siRNA | 0.755 | 2.19 | -0.679 | 0.734
Zfp286 (GeneID 192651) | SID315487994 | qiagen single siRNA | 0.0058 | 0.888 | -0.876 | 0.734
Dnm2 (GeneID 13430) | SID315484053 | ambion single siRNA | 1.31 | 0.613 | 2.02 | -0.0961
Dnm2 (GeneID 13430) | SID315484054 | ambion single siRNA | -1.18 | -1.56 | -0.805 | -0.0961
Dnm2 (GeneID 13430) | SID315484055 | ambion single siRNA | -0.384 | 1.16 | -1.93 | -0.0961
Dnm2 (GeneID 13430) | SID315484056 | qiagen single siRNA | 1.4 | 1.79 | 1.01 | 0.688
Dnm2 (GeneID 13430) | SID315484057 | qiagen single siRNA | -0.474 | -1.76 | 0.81 | 0.688
Dnm2 (GeneID 13430) | SID315484058 | qiagen single siRNA | -0.343 | -1.25 | 0.566 | 0.688
Smad1 (GeneID 17125) | SID315484503 | ambion single siRNA | -0.41 | -0.0361 | -0.784 | -0.585
Smad1 (GeneID 17125) | SID315484504 | ambion single siRNA | 0.38 | 1.15 | -0.387 | -0.585
Smad1 (GeneID 17125) | SID315484505 | ambion single siRNA | -1.42 | -2 | -0.835 | -0.585
Smad1 (GeneID 17125) | SID315484506 | qiagen single siRNA | 2.43 (active) | 2.44 | 2.42 | 1.23
Smad1 (GeneID 17125) | SID315484507 | qiagen single siRNA | 0.0457 | -1.14 | 1.23 | 1.23
Smad1 (GeneID 17125) | SID315484508 | qiagen single siRNA | -8.52 (active) | -8.52 | – | 1.23
Slc16a10 (GeneID 72472) | SID315486729 | ambion single siRNA | -0.348 | 0.232 | -0.927 | -0.144
Slc16a10 (GeneID 72472) | SID315486730 | ambion single siRNA | 2.11 (active) | 1.94 | 2.28 | -0.144
Slc16a10 (GeneID 72472) | SID315486731 | ambion single siRNA | -3.75 (active) | -0.52 | -6.99 | -0.144
Slc16a10 (GeneID 72472) | SID315486732 | qiagen single siRNA | -0.951 | -0.93 | -0.972 | 0.0411
Slc16a10 (GeneID 72472) | SID315486733 | qiagen single siRNA | 0.947 | -0.245 | 2.14 | 0.0411
Slc16a10 (GeneID 72472) | SID315486734 | qiagen single siRNA | 1.33 | 0.327 | 2.34 | 0.0411
Tgs1 (GeneID 116940) | SID315487638 | ambion single siRNA | -3.92 (active) | -3.92 | – | -2.87
Tgs1 (GeneID 116940) | SID315487639 | ambion single siRNA | 1.48 | 2.26 | 0.696 | -2.87
Tgs1 (GeneID 116940) | SID315487640 | ambion single siRNA | -6.47 (active) | -10.1 | -2.87 | -2.87
Tgs1 (GeneID 116940) | SID315487641 | qiagen single siRNA | 1.36 | 0.869 | 1.85 | 0.513
Tgs1 (GeneID 116940) | SID315487642 | qiagen single siRNA | 0.941 | 0.157 | 1.72 | 0.513
Tgs1 (GeneID 116940) | SID315487643 | qiagen single siRNA | -2.87 (active) | -2.4 | -3.33 | 0.513

3 entries from above, reformatted.
target gene,PubChem SID,siRNA vendor or control pool,"p65 translocation z-score, replicate mean","p65 translocation z-score, replicate 1","p65 translocation z-score, replicate 2","gene median z-score, per vendor"
Tgs1 (GeneID 116940),SID315487639,ambion single siRNA,1.48,2.26,0.696,-2.87
Tgs1 (GeneID 116940),SID315487640,ambion single siRNA,-6.47 (active),-10.1,-2.87,-2.87
Tgs1 (GeneID 116940),SID315487641,qiagen single siRNA,1.36,0.869,1.85,0.513

Further records:
target gene | PubChem SID | siRNA vendor or control pool | p65 translocation z-score, replicate mean | p65 translocation z-score, replicate 1 | p65 translocation z-score, replicate 2 | gene median z-score, per vendor
C730034F03Rik (GeneID 105246016) | SID315488874 | ambion single siRNA | -2.29 (active) | -2.28 | -2.29 | -2.09
C730034F03Rik (GeneID 105246016) | SID315488875 | ambion single siRNA | -1.72 | -1.55 | -1.89 | -2.09
C730034F03Rik (GeneID 105246016) | SID315488876 | ambion single siRNA | -3.17 (active) | -1.6 | -4.75 | -2.09
C730034F03Rik (GeneID 105246016) | SID315488877 | qiagen single siRNA | 1.54 | 1.02 | 2.05 | -0.501
C730034F03Rik (GeneID 105246016) | SID315488878 | qiagen single siRNA | -0.501 | -0.735 | -0.267 | -0.501
C730034F03Rik (GeneID 105246016) | SID315488879 | qiagen single siRNA | -1.64 | -1.35 | -1.92 | -0.501
Slc25a28 (GeneID 246696) | SID315488532 | ambion single siRNA | 1.58 | 1.9 | 1.26 | -1.09
Slc25a28 (GeneID 246696) | SID315488533 | ambion single siRNA | -1.41 | -1.18 | -1.64 | -1.09
Slc25a28 (GeneID 246696) | SID315488534 | ambion single siRNA | -3.18 (active) | -0.997 | -5.36 | -1.09
Slc25a28 (GeneID 246696) | SID315488535 | qiagen single siRNA | 1.84 | 0.225 | 3.46 | -0.327
Slc25a28 (GeneID 246696) | SID315488536 | qiagen single siRNA | -1.5 | -0.879 | -2.12 | -0.327
Slc25a28 (GeneID 246696) | SID315488537 | qiagen single siRNA | -1.09 | -2.66 | 0.474 | -0.327
Chst8 (GeneID 68947) | SID315486576 | ambion single siRNA | -2.15 (active) | -2.15 | – | -1.32
Chst8 (GeneID 68947) | SID315486577 | ambion single siRNA | -0.483 | -0.483 | – | -1.32
Chst8 (GeneID 68947) | SID315486578 | ambion single siRNA | 1.16 | 5.24 | -2.92 | -1.32
Chst8 (GeneID 68947) | SID315486579 | qiagen single siRNA | 0.967 | 0.509 | 1.43 | -0.492
Chst8 (GeneID 68947) | SID315486580 | qiagen single siRNA | -1.4 | -1.6 | -1.19 | -0.492
Chst8 (GeneID 68947) | SID315486581 | qiagen single siRNA | -0.492 | 0.0188 | -1 | -0.492
Fga (GeneID 14161) | SID315484146 | ambion single siRNA | 2.26 (active) | 2.37 | 2.14 | 2.25
Fga (GeneID 14161) | SID315484147 | ambion single siRNA | -4.33 (active) | -4.06 | -4.59 | 2.25
Fga (GeneID 14161) | SID315484148 | ambion single siRNA | 2.68 (active) | 2.98 | 2.37 | 2.25
Fga (GeneID 14161) | SID315484149 | qiagen single siRNA | 2.43 (active) | 0.222 | 4.65 | 0.824
Fga (GeneID 14161) | SID315484150 | qiagen single siRNA | -1.64 | -2 | -1.28 | 0.824
Fga (GeneID 14161) | SID315484151 | qiagen single siRNA | 2.1 (active) | 1.43 | 2.78 | 0.824
